The full ranking holds about 33,000 sequences; the median of “E-score (-0.5 to 0.5)” is about -0.0034, and the highest 2% start at about 0.25. Some of the results follow.
These sequences were tested against T1, Yap3 (UniProt P38749) (assay: PBM E-score (8-mer binding enrichment) (E-score (-0.5 to 0.5)); higher = stronger / more preferred TF binding). Details: protein concentration: 100 nM; construct: GST-full length.
T1 sequence: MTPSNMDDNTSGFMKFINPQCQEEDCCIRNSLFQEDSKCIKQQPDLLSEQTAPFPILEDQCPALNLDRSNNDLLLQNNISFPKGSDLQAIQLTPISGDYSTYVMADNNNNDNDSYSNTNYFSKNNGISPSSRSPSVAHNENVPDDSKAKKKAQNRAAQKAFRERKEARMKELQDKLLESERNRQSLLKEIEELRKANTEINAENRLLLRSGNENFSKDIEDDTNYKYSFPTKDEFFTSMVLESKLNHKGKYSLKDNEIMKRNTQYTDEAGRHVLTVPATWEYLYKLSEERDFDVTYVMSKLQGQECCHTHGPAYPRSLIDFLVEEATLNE
In short: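 E-scores (a modified Wilcoxon-Mann-Whitney statistic) were assigned by the Universal PBM Analysis Suite to every ungapped eight-base word pooled with its reverse complement. The input came from universal all-10-mer Agilent arrays made double-stranded by primer extension and probed with GST-tagged yeast transcription factors at about 100-200 nM. Fluorescent anti-GST detected bound protein, and masliner normalised the scans.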

In order of falling “PBM E-score” value:
1. GTGTATTA  0.338
2. GGAAAAAC  0.3
3. CCGCGCGG  0.293
4. CATTACTA  0.292
5. ATTCGTTC  0.27
6. GTTCATTA  0.259
7. GAAAATAA  0.224
8. TAAATCAA  0.219
9. ATAGTAAT  0.212
10. AATGACAA  0.211
11. CACTGTAA  0.206
12. TAATACCA  0.204
13. CCTCGTAA  0.203
14. AACCAATT  0.203
15. AACAACGA  0.19
16. ATCAATAA  0.172
17. AGGAATAT  0.148
18. AACTAAGC  0.148
19. ATCAATCA  0.145
20. GACCTATA  0.136
21. CATATTGG  0.134
22. AAATCACT  0.133
23. AATAAAGC  0.133
24. CAAAACTC  0.13
25. ATGACGTG  0.127
26. TATAGCCA  0.122
27. AGTTACAA  0.113
28. ACGTATTG  0.111
29. CTTTGAAA  0.11
30. TACAGGTA  0.105
31. CGCGTCTA  0.102
32. GAACATCC  0.101
33. GAAATCAA  0.0981
34. CAGGTTGC  0.097
35. GTTTAGAA  0.089
36. TGCTTACA  0.0854
37. CGAATTAC  0.0851
38. ACTTATGC  0.0843
39. TACTTATA  0.0807
40. CCATGTTA  0.08
41. CGATAGAA  0.0788
42. ATACGTTG  0.0773
43. CACATTGG  0.0753
44. TCCTTACA  0.0749
45. AACTAGAT  0.0716
46. AGGACCTA  0.0695
47. TGATGACA  0.069
48. GACCACGA  0.0626
49. ACGGTCTA  0.062
50. ATAGCAAC  0.0566
51. ACAAGAGT  0.0549
52. ATCTGGAA  0.0543
53. GATCAGCA  0.0532
54. ATAAGAAG  0.0494
55. ATCCACGA  0.0482
56. TCTATGCA  0.0427
57. GGCATTCA  0.0407
58. GAGACCCA  0.0371
59. AAGTGTGA  0.0366
60. GCTGTCCA  0.0344
61. CACGCGTA  0.0329
62. GAGATATC  0.0326
63. CTGACACA  0.0323
64. TAATTTGA  0.0257
65. ATCTGAGC  0.0191
66. ATGCCATG  0.0188
67. ACTAGTGG  0.0165
68. GTGCTAGA  0.0158
69. AGCGCATC  0.0137
70. CCGTACAC  0.0127
71. CCAGTTTA  0.00939
72. AGTGCACT  0.00706
73. TGCTGAAA  0.00603
74. GCACGGAC  0.00362
75. ATGTTCAG  0.0021
76. AACCCTCA  0.00014
77. CATGTCGA  -0.00696
78. ACAGAGGA  -0.00698
79. CGTCAAAC  -0.00904
80. AATGCTGC  -0.00914
81. ACTGAACT  -0.0105
82. CAGTTCGC  -0.0145
83. TAGGTTGA  -0.0164
84. ATTAGGCA  -0.0189
85. ACGAGACC  -0.0193
86. AGCGGCCG  -0.02
87. TAGGCGAA  -0.0231
88. AAACCGGC  -0.0239
89. ACGAAGCC  -0.0311
90. CATTGCTC  -0.0314
91. AAGTCGAA  -0.0326
92. AAGCTAGT  -0.0349
93. GGGAGAAA  -0.0432
94. AAACCTTT  -0.0466
95. AGCGTCGG  -0.0472
96. AAAGATCT  -0.0503
97. GAAAACTC  -0.052
98. ACGCTCCT  -0.0527
99. CCCATACC  -0.0532
100. AACTTCTA  -0.0537
101. AGCAACAG  -0.0561
102. AGGTTCTA  -0.0563
103. CGCATCAC  -0.0578
104. GCAAGACC  -0.0586
105. CGAGACGA  -0.0632
106. AGGTGTGA  -0.0646
107. AGACCCCA  -0.0654
108. CGTCCTAC  -0.0667
109. CCGTGTGC  -0.0669
110. ACACTAAG  -0.0672
111. CTGTCTCC  -0.0717
112. AGCGCAAA  -0.073
113. ATGAGACG  -0.0735
114. CGACGCAA  -0.0781
115. CATCGCGG  -0.082
116. AGAAGGAC  -0.0822
117. CTTGGCGC  -0.0848
118. GCTCCGGA  -0.0914
119. CGGCTTCC  -0.0962
120. TCGCCGCA  -0.102
121. GGACAGCC  -0.105
122. ACGGATCG  -0.106
123. TGAGCCCA  -0.107
124. AACCGCTA  -0.108
125. CGGCAGTC  -0.108
126. GCAGTGAC  -0.11
127. ACAGAGAG  -0.111
128. AGGCTGCA  -0.111
129. CGCCGTAG  -0.114
130. TCCGGCCA  -0.115
131. CCAGTTCC  -0.115
132. GACGGCGC  -0.115
133. CAAGCAGC  -0.117
134. CCTATCAC  -0.118
135. GCGCTAGC  -0.118
136. AGACCAGG  -0.12
137. AGCGATAG  -0.121
138. AAGAGGGA  -0.122
139. ATCTCGCC  -0.131
140. AGAGACGG  -0.143
141. AGGATCGG  -0.156
142. AGTCTGTC  -0.157
143. AGGTCACA  -0.157
144. ATCTGGAG  -0.165
145. GCTTGCAC  -0.169
146. GCCACGCA  -0.17
147. TCAGTCCA  -0.171
148. CTGAGATC  -0.172
149. CTGTACCA  -0.177
150. CGGCTGAA  -0.182
151. GGCCGACA  -0.183
152. ATACGCCC  -0.184
153. AGACCCGC  -0.189
154. TCCCGCGA  -0.19
155. GGCGCCCC  -0.203
156. GGCGAACC  -0.223
157. CAAGGGGG  -0.226
158. GCGGTCAC  -0.23
159. GGCCACCC  -0.23
160. CGGCGGCA  -0.243
161. ACCAGGTG  -0.245
162. CGCAGCCC  -0.253
163. ACCGGAGG  -0.265
164. GCCCGCTA  -0.272
165. CAGGGCGG  -0.275
166. CGCTGCGC  -0.281
167. CGCAGGCG  -0.285
168. CCGGCTAG  -0.289
169. CGGGTCCA  -0.299
170. CCTTCGGC  -0.301
171. GGCCCGCC  -0.381
172. GAGGGGGC  -0.408
